Laboratory results reported in US20210139857A1, “Intestinal organoid co-culture systems and methods for treating or preventing a disease or disorder associated with immune response-mediated tissue injury” (NEW YORK UNIVERSITY, priority 2019, published 2021).
At least one structure is not confirmed: it was looked up by name or label, or the drawing left a doubt.

Tests used:
Atg16L1^ΔIEC organoids = assay: mouse organoid viability assay, TNFα-induced death; type: cell-based; details: 20 ng/ml TNFα, 100 nM Ruxolitinib, 48 hours, P<0.001
phosphorylated (p)-RIP3 = assay: western blot of necroptosis-related proteins in organoids; type: cell-based, mouse; details: Atg16L1^ΔIEC organoids, 100 nM Ruxolitinib, 20 ng/ml TNFα for 2 hours
[1] = test system: ISGs (Oasl2, Isg15, and Apol9a); assay: quantitative RT-PCR of ISG expression in organoids; type: cell-based, mouse; details: 100 nM Ruxolitinib, day 3, normalized to Actb
[2] = test system: ATG16L1^T300A homozygous human organoids; assay: human organoid viability assay, TNFα-induced death; type: cell-based; details: 50 ng/ml TNFα, 48 hours; 100 nM Ruxolitinib, 1 μM GSK547, 20 μM Necrostatin-1s, 2 μM NSA; P<0.0001
Protocol: N=14 (Nonrisk) and 6 (T300A/T300A). Statistical significance was validated with Fisher's exact test. FIG. 13B depicts a combined organoid viability in (A). N=14 (Non-risk) and 6 (T300A/T300A). FIG. 13C and FIG. 13D depict representative images (FIG. 13C) and viability (FIG. 13D) of human small intestinal organoids stimulated with or without 50 ng/ml TNFα, 100 nM Ruxolitinib, 1 μM GSK547, 20 μM Necrostatin-1s (Nec-1s), and 2 μM necrosulfonamide (NSA) for 48 hours. Scale bars represent 400 μm. Data points in FIG. 13B represent an average viability of individual organoids in FIG. 12, and data points in FIG. […] are mean of technical replicates. […]
Mouse small intestinal and colonic crypts were isolated and cultured. Crypts of proximal small intestine were counted and embedded in Matrigel at 10,000 crypts/ml and cultured in DMEM/F-12 in the presence of 100 IU penicillin and 100 μg/ml streptomycin (Corning), 125 μg/ml gentamicin (Gibco), 2 mM l-glutamine (Corning), 20 ng/ml mEGF (PeproTech), 100 ng/ml mNoggin (R&D Systems), and 500 ng/ml mR-Spondin 1 (R&D Systems), hereafter referred as ENR medium. Crypts of colon were counted and embedded in Matrigel and cultured in the ENR medium plus 50 ng/ml Wnt-3a, 1×B-27, and N-2 supplement (Thermo Fisher Scientific). […] Percent viable organoids was determined by daily quantification of the number of intact organoids. […]

[3] = animal models and patients (Schroeder et al., 2018; Spoerl et al., 2014); cited from earlier work

N#CC[C@H](C1CCCC1)n1cc(-c2ncnc3[nH]ccc23)cn1 [Ruxolitinib]
viability of organoids, TNFα-induced death (Atg16L1^ΔIEC organoids): protected | level of phosphorylated (p)-RIP3 (phosphorylated (p)-RIP3): restricted | expression of ISGs (Oasl2, Isg15, Apol9a) [1]: inhibited | viability of human organoids, TNFα-induced death [2]: significantly protected | efficacy in GVHD [3]: ameliorating GVHD
